Taken from: PubChem BioAssay AID1259254 (NCATS, 2017)
Here is one part, drawn at random, of about 59,000 deposited reagents. About 1,550 of all reagents (2.6%) were called active. 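G2 share is only a proxy for re-replication; each gene was hit by three separate siRNAs, and active genes were retested.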 Reagents against one gene are numbered here. Further read-outs or replicates are left out here. No sequences are given here. The record does not give: the amount of reagent.

Aim: 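Finding genes that stop cells copying their DNA twice in one cycle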 (primary screen)
System: human HCT116 colorectal cancer cells
Reagent: single siRNA against human genes
Duration: 3 days
Read-out: 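Nuclei stained with Hoechst and imaged; cell-cycle phase assigned by DNA content; G2 share scaled per plate, non-targeting siRNA 0%, GMNN siRNA 100%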
Direction: G2 robust z-score and G2 cells, % of GMNN control: higher = more G2 cells, more excess DNA replication
Hit rule: 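Active siRNAs have a G2 robust z of 5 or more median absolute deviations over the median, which in these data means about 38% or higher of GMNN control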

gene	reagent	G2 robust z-score	G2 cells, % of GMNN control	call
ETV2 (ETS variant transcription factor 2)	1	-1.33	-6.42	inactive
ETV2 (ETS variant transcription factor 2)	2	0.965	9.76	inactive
ETV2 (ETS variant transcription factor 2)	3	0.976	9.83	inactive
RELL2 (RELT like 2)	1	0.897	9.28	inactive
RELL2 (RELT like 2)	2	-0.439	-0.122	inactive
RELL2 (RELT like 2)	3	0.103	3.69	inactive
PIK3C2B	1	0.134	3.91	inactive
PIK3C2B	2	-1.37	-6.68	inactive
PIK3C2B	3	-0.26	1.14	inactive
FREM1 (FRAS1 related extracellular matrix 1)	1	-1.34	-6.48	inactive
FREM1 (FRAS1 related extracellular matrix 1)	2	0.0389	3.24	inactive
FREM1 (FRAS1 related extracellular matrix 1)	3	-0.291	0.918	inactive
ADCY6 (adenylate cyclase 6)	1	3.36	26.6	inactive
ADCY6 (adenylate cyclase 6)	2	-0.426	-0.0305	inactive
ADCY6 (adenylate cyclase 6)	3	-0.186	1.66	inactive

Sorted by “G2 robust z-score” (lowest first): some entries from above
gene	reagent	G2 robust z-score	G2 cells, % of GMNN control	call
RELL2 (RELT like 2)	3	0.103	3.69	inactive
PIK3C2B	1	0.134	3.91	inactive

Continued.
gene	reagent	G2 robust z-score	G2 cells, % of GMNN control	call
GART	1	0.69	7.82	inactive
GART	2	2.57	21	inactive
GART	3	-0.294	0.9	inactive
MAP10 (microtubule associated protein 10)	1	4.96	37.8	inactive
MAP10 (microtubule associated protein 10)	2	4.19	32.4	inactive
MAP10 (microtubule associated protein 10)	3	-1.02	-4.23	inactive
H1-6 (H1.6 linker histone, cluster member)	1	-0.0437	2.66	inactive
H1-6 (H1.6 linker histone, cluster member)	2	0.484	6.37	inactive
H1-6 (H1.6 linker histone, cluster member)	3	-0.854	-3.04	inactive
PACSIN3 (protein kinase C and casein kinase substrate in neurons 3)	1	3.28	26	inactive
PACSIN3 (protein kinase C and casein kinase substrate in neurons 3)	2	-0.542	-0.847	inactive
PACSIN3 (protein kinase C and casein kinase substrate in neurons 3)	3	-0.484	-0.436	inactive
EVI2A (ecotropic viral integration site 2A)	1	-0.528	-0.745	inactive
EVI2A (ecotropic viral integration site 2A)	2	2.25	18.8	inactive
EVI2A (ecotropic viral integration site 2A)	3	1.03	10.2	inactive
